Test results: US6844190B2, “St-B17 serotonin receptor” (The United States of America as represented by the …, priority 1992, dated 2005)

Sequences of proteins named here, by UniProt entry; tags and fusion partners are left off. A line that says so, or that is headed by a name, gives the form on record, which may keep a tag or linker.
UniProt P31388, with tags, fused parts or gaps L57V: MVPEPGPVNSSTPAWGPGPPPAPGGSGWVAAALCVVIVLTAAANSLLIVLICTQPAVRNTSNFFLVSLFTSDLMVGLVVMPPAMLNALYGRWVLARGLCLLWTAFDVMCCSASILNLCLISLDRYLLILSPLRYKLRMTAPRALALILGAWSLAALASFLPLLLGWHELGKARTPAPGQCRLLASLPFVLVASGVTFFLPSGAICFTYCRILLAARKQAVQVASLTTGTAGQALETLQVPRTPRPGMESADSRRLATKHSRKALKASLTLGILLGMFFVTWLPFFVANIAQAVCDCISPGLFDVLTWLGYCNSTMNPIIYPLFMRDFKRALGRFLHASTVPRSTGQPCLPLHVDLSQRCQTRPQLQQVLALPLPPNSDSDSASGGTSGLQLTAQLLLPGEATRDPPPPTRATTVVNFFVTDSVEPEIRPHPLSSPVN

Tests used:
[1] = target: St-B17 serotonin receptor (Rattus norvegicus, UniProt P31388, L57V); assay: [125I]-LSD competition binding, Cos-7 cell membranes expressing St-B17; parameters: expressed in transfected cells; host or cells: Cos-7 cells, transient transfection, crude membranes; conditions: qualitative statement
Experimental: This experiment was performed on Cos-7 cell membranes expressing the St-B17 serotonin receptor.

[2] = target: T1, St-B17 stably expressed in HEK-293 cells (Rattus norvegicus, UniProt P31388, L57V); assay: cAMP accumulation in intact HEK-293 cells stably expressing St-B17; type: cell-based; conditions: 10 μM final concentration, FIG. 5
T1 construct: expressed in transfected cells
Experimental: Human Embryonic Kidney cells (HEK 293 available from the ATCC) were stably co-transfected in 150mm dishes by the CaPO4 technique with 30 μg of pSRα-B17 and 3 μg of pMam-neo (INVITROGEN). These HEK 293 cells were then subjected to selection with 600 μg/ml genetecin (G418) (GIBCO). The resistant colonies were collected and screened for receptor expression by [^125I]-LSD binding as described in Example 6.
Intracellular cAMP levels were determined after a 5 minute incubation of intact cells with various test compounds at 37° C. in the presence of the cAMP phosphodiesterase inhibitor RO-20-1724, using a modification of a previously described cAMP assay (Monsma, F. J., Jr., Barton, A. C., and Sibley, D. R. (1990) J. Neurochemistry 54, 1200-1207) wherein the adrenal cAMP binding protein was replaced with 0.8 mg/ml protein kinase A in water.

CCN(CC)C(=O)N[C@H]1C=C2c3cccc4[nH]cc(c34)C[C@H]2N(C)C1 [Lisuride]
affinity for St-B17 (in words) [1]: relatively high affinity | effect on cAMP levels on their own (in words) [2]: stimulate cAMP accumulation | functional classification at St-B17 receptor [2]: partial agonists
